Measurements published in patent US20240043528A1, “NANOBODY-OGA FUSIONS AND USES THEREOF” (President and Fellows of Harvard College, priority 2020, published 2024).
These are yes or no findings as the source states them, for the method shown. Binding seen in cells or lysates may run through a third protein. Some entries that bind do so weakly or less than the wild type. Where a sequence is shown, tags or fusion partners need not be part of it. Each block holds one binder with its values, some of them ahead of it.

Amino acid sequences for entries named in this document (tags omitted). A change or cut given only in a name is not applied to a line headed by its entry.
UniProt O60502: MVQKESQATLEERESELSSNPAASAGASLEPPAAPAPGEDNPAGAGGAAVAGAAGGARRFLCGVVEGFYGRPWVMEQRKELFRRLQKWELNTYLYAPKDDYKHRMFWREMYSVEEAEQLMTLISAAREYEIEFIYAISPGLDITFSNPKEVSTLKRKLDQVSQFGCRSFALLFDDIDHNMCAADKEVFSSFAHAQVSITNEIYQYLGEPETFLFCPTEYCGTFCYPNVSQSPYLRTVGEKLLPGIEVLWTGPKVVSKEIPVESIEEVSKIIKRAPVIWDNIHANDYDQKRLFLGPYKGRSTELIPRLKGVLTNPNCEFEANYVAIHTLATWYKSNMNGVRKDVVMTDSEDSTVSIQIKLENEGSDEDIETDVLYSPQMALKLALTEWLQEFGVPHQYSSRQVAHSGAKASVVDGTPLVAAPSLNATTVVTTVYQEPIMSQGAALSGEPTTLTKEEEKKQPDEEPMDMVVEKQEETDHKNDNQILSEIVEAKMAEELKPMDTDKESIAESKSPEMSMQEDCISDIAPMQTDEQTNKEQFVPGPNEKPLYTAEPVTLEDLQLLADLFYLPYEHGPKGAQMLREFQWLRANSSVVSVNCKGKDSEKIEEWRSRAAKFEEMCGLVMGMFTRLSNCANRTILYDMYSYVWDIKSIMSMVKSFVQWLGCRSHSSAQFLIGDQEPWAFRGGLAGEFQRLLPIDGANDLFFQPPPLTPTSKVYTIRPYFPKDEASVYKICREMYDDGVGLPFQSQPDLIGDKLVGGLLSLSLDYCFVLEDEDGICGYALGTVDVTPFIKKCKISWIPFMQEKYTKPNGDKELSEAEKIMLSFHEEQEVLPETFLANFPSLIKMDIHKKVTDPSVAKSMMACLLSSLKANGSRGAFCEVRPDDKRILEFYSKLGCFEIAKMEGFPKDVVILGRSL

What was measured:
[1] = molecular target: T1, OGT with C-terminal His tag (human) (UniProt O15294); assay: co-immunoprecipitation with beads against the His tag of OGT from HEK 293T lysates, immunoblot
T1 sequence (looked up): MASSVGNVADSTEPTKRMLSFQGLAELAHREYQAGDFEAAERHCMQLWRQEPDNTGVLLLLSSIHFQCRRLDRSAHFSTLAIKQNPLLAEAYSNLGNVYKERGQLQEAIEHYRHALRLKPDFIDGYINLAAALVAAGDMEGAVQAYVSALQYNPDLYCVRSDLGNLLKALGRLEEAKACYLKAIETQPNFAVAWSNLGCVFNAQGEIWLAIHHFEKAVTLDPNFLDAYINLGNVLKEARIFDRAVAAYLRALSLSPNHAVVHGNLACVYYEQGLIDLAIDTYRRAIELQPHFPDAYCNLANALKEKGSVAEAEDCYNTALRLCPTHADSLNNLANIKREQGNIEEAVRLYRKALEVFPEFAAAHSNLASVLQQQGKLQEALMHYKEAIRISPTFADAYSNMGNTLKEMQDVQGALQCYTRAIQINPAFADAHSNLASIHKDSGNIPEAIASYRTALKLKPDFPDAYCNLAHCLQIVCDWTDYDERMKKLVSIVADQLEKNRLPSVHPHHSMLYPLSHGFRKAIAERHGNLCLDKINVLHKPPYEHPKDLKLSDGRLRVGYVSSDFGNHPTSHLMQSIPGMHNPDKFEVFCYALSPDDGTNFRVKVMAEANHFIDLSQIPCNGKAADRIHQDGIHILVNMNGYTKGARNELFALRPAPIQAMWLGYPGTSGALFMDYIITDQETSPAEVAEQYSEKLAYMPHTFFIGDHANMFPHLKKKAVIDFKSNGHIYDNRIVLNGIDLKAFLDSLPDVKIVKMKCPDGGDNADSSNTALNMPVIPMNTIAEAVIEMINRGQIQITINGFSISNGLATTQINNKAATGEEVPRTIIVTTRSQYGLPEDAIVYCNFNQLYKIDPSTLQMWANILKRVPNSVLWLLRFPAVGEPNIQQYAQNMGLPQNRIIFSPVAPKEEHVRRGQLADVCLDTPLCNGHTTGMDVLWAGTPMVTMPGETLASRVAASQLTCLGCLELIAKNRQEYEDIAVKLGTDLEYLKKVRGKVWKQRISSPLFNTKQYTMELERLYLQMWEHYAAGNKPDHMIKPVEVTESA

[2] = molecular target: HA-nGFP-(EAAAK)4-OGA(544-706) (human); assay: reciprocal co-immunoprecipitation from HEK 293T lysates, immunoblot
HA-OGA(544-706) (human) = molecular target: T2, HA-OGA(544-706) (human) (UniProt O60502); assay: co-immunoprecipitation from HEK 293T lysates, immunoblot
T2 sequence: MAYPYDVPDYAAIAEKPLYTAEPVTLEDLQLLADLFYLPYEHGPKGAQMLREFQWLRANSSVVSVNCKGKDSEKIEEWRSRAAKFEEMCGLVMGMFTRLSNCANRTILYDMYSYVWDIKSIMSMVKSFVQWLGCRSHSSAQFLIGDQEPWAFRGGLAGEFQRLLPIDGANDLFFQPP

binding [1]: binds
B1: myc-OGA (full length human OGA with a myc tag) (enzyme)
chain: MASMQKLISEEDLLMAMEARIRSTVQKESQATLEERESELSSNPAASAGASLEPPAAPAPGEDNPAGAGGAAVAGAAGGARRFLCGVVEGFYGRPWVMEQRKELFRRLQKWELNTYLYAPKDDYKHRMFWREMYSVEEAEQLMTLISAAREYEIEFIYAISPGLDITFSNPKEVSTLKRKLDQVSQFGCRSFALLFDDIDHNMCAADKEVFSSFAHAQVSITNEIYQYLGEPETFLFCPTEYCGTFCYPNVSQSPYLRTVGEKLLPGIEVLWTGPKVVSKEIPVESIEEVSKIIKRAPVIWDNIHANDYDQKRLFLGPYKGRSTELIPRLKGVLTNPNCEFEANYVAIHTLATWYKSNMNGVRKDVVMTDSEDSTVSIQIKLENEGSDEDIETDVLYSPQMALKLALTEWLQEFGVPHQYSSRQVAHSGAKASVVDGTPLVAAPSLNATTVVTTVYQEPIMSQGAALSGEPTTLTKEEEKKQPDEEPMDMVVEKQEETDHKNDNQILSEIVEAKMAEELKPMDTDKESIAESKSPEMSMQEDCISDIAPMQTDEQTNKEQFVPGPNEKPLYTAEPVTLEDLQLLADLFYLPYEHGPKGAQMLREFQWLRANSSVVSVNCKGKDSEKIEEWRSRAAKFEEMCGLVMGMFTRLSNCANRTILYDMYSYVWDIKSIMSMVKSFVQWLGCRSHSSAQFLIGDQEPWAFRGGLAGEFQRLLPIDGANDLFFQPPPLTPTSKVYTIRPYFPKDEASVYKICREMYDDGVGLPFQSQPDLIGDKLVGGLLSLSLDYCFVLEDEDGICGYALGTVDVTPFIKKCKISWIPFMQEKYTKPNGDKELSEAEKIMLSFHEEQEVLPETFLANFPSLIKMDIHKKVTDPSVAKSMMACLLSSLKANGSRGAFCEVRPDDKRILEFYSKLGCFEIAKMEGFPKDVVILGRSL

binding [2]: binds
binding (HA-OGA(544-706) (human)): binds
B2: myc-OGA(1-400) (enzyme)
chain: MEQKLISEEDLAIAMVQKESQATLEERESELSSNPAASAGASLEPPAAPAPGEDNPAGAGGAAVAGAAGGARRFLCGVVEGFYGRPWVMEQRKELFRRLQKWELNTYLYAPKDDYKHRMFWREMYSVEEAEQLMTLISAAREYEIEFIYAISPGLDITFSNPKEVSTLKRKLDQVSQFGCRSFALLFDDIDHNMCAADKEVFSSFAHAQVSITNEIYQYLGEPETFLFCPTEYCGTFCYPNVSQSPYLRTVGEKLLPGIEVLWTGPKVVSKEIPVESIEEVSKIIKRAPVIWDNIHANDYDQKRLFLGPYKGRSTELIPRLKGVLTNPNCEFEANYVAIHTLATWYKSNMNGVRKDVVMTDSEDSTVSIQIKLENEGSDEDIETDVLYSPQMALKLALTEWLQEFGVPHQYSSR
